# Test results published in patent publication US11840707B2, “Co-culture system and method for in vitro assessment of reverse cholesterol transport” (INSTITUT DE CARDIOLOGIE DE MONTREAL, priority 2016, dated 2023).
# “Also recorded” adds a separate entry of the source.
# Tests used:
# HepG2 hepatocytes = test: Co-culture assay: Specific Chol Uptake into HepG2 hepatocytes on insert membrane; format: cell-based, human; conditions: for combined effect on Specific Chol Uptake: HepG2 25 μM atorvastatin plus J774 300 μM cAMP
# From the text: (§1) Total Chol Efflux is the sum of co-culture medium counts plus hepatic counts, while Total Chol Uptake is defined as hepatic counts only. Both Chol Efflux and Chol Uptake are expressed as % of total counts in the system. Background values, corresponding to basal co-culture medium (without acceptors), can be subtracted from the corresponding values in presence of acceptors to obtain Specific Chol Efflux (%) and Specific Chol Uptake (%) values.
# (§2) Simultaneous Measurement of Cholesterol Flux Between Cholesterol-Loaded, ^3H-Cholesterol-Labeled J774 Cells and Target HepG2 Hepatocytes in a Transwell-Clear™ Insert.
# (§3) J774 cells were seeded at a density of 8,000 cells per cm^2 in 1 mL of Dulbecco's minimal essential medium (DMEM, high glucose) and supplemented with 10% fetal bovine serum (FBS) and 1% penicillin/streptomycin in standard 12-well (3.8 cm^2) flat bottom plates (Corning).
# (§4) Transwell-Clear™ 12-well plates (Corning, cat. #3642), each consisting of 12 cylindrical cell culture inserts (1.12 cm^2 insert/well) were bathed with 2 mL Eagle's minimal essential medium (EMEM, low glucose) distributed as follows: 0.5 mL in the insert and 1.5 mL in the well. Loaded plates were pre-incubated in an incubator at 37° C. with 5% CO2 for 30-45 min without cells in order to improve later cell attachment and maximize cell spreading on the insert membrane during cell culture. After pre-incubation, the media was removed. The wells of the Transwell plates were then filled with 1.5 mL of EMEM (low glucose) supplemented with 10% FBS and 1% penicillin/streptomycin and HepG2 cells were seeded at a density of 60,000 cells per cm^2 in 0.5 mL EMEM (low glucose) supplemented with 10% FBS and 1% penicillin/streptomycin on each insert.
# (§5) Following seeding in plates or inserts, both cell types were placed in a cell incubator at 37° C. filled with humidified air and 5% CO2 and incubated for 72 h.
# (§6) Following the 72-hour incubation and achieving a J774 cell confluence of 70-80%, the J774 cells were washed with 1 mL per well of PBS at 20° C. After the wash, 1 mL of Labeling Medium was added to each well. The Labeling Medium contained: 1% FBS, 1% penicillin/streptomycin, 2 μCi/mL of ^3H-cholesterol (Perkin-Elmer, NET139005MC), 50 μg protein/mL of acetylated LDL (acLDL) and DMEM (high glucose). The cells were then incubated for 24 hr at 37° C. in a cell incubator filled with humidified air and 5% CO2. One plate served as a reference to determine the labeled-cholesterol level in cells prior to co-culture assay.
# (§7) Following the 72-hour incubation, the culture medium was removed from HepG2 cells grown on the insert membrane and replaced with 2 mL of fresh EMEM (low glucose) supplemented with 10% FBS and 1% penicillin/streptomycin. The cells were then incubated for an additional 24 hours at 37° C. in an incubator filled with humidified air and 5% CO2.
# Following the 24-hour incubation of J774 cells, the labeling medium was removed from the plates and discarded. The cells were then washed with 1 mL of phosphate-buffered saline (PBS) at 20° C. and replaced with Equilibration Medium containing: DMEM (high glucose), 0.2% Bovine Serum Albumin (BSA) (low endotoxin, fatty acid-free, Sigma, cat. #A8806) and the appropriate Treatment under study. The J774 culture was then incubated for 24 hours.
# J774 cells ongoing the ^3H-cholesterol equilibration phase and/or HepG2 cells before co-culture can be treated by various means. Pharmacological agent is diluted in the appropriate culture medium with 0.2% BSA and vehicle (solvent) is tested in parallel. Modulation of gene expression is also accomplished at this step, by transfection of siRNA according to the manufacturer's protocol, and a control non-silencing RNA is tested in parallel.
# After 24 hour of incubation, equilibration medium from J774 culture and culture medium from HepG2 cells were discarded. Cells were washed with 1 mL (J774) or 2 mL (HepG2) of PBS at 20° C. and the wash medium discarded. […]
# J774 macrophages = test: Co-culture assay: Specific Chol Efflux from 3H-cholesterol-labeled J774 macrophages; format: cell-based, murine
# From the text: as §1, §2, §3
# as §4, with “Loaded” for “Transwell-Clear™ 12-well plates (Corning, cat. #3642), each consisting of 12 cylindrical cell culture inserts (1.12 cm^2 insert/well) were bathed with 2 mL Eagle's minimal essential medium (EMEM, low glucose) distributed as follows: 0.5 mL in the insert and 1.5 mL in the well. Loaded”
# as §5, §6, §7
# Following the 24-hour incubation of J774 cells, the labeling medium was removed from the plates and discarded. […]
# [1] = HepG2 pre-treated 25 μM, acceptor human LDL
# [2] = HepG2 pre-treated 25 μM, acceptor human LDL, listed as Atorvastatin
smiles,measurement,setting,value
CC(C)c1c(C(=O)Nc2ccccc2)c(-c2ccccc2)c(-c2ccc(F)cc2)n1CC[C@@H](O)C[C@@H](O)CC(=O)O [atorvastatin],combined effect on Specific Chol Uptake,HepG2 hepatocytes; acceptor apoB-depleted serum,not
same,combined effect on Specific Chol Uptake,HepG2 hepatocytes; acceptor complete human serum,additive effect
same,effect on Specific Chol Uptake,HepG2 hepatocytes; [1],increased significantly
same,effect on Specific Chol Uptake,HepG2 hepatocytes; [2],increased
same,effect on Specific Chol Uptake,"HepG2 hepatocytes; HepG2 pre-treated overnight 25 μM, acceptor apoB-depleted serum",reduced effect and not
same,effect on Specific Chol Uptake,"HepG2 hepatocytes; HepG2 pre-treated overnight 25 μM, acceptor complete human serum",significantly increased
same,effect on Specific Chol Uptake,"HepG2 hepatocytes; HepG2 pre-treated overnight 25 μM, acceptor complete human serum, listed as Atorvastatin",increased
same,effect on Chol Uptake,"HepG2 hepatocytes; hepatocytes pre-treated 10 μM, acceptor apoB-depleted serum, compared to complete serum",reduced effect
same,effect on hepatic Chol Uptake,"HepG2 hepatocytes; hepatocytes pre-treated 10 μM, acceptor complete human serum",increased
same,effect on Specific Chol Efflux,J774 macrophages; [1],did not modify
same,effect on Specific Chol Efflux,J774 macrophages; [2],did not modulate
same,effect on Specific Chol Efflux,"J774 macrophages; HepG2 pre-treated overnight 25 μM, acceptor human serum",did not change; also recorded: did not modulate
same,effect on Specific Chol Efflux,"J774 macrophages; HepG2 pre-treated overnight 25 μM, acceptor human serum, listed as Atorvastatin",did not affect
